Publication PMC11047997
These are yes or no findings as the source states them, for the method shown. In cells and extracts the contact can be indirect. Some binding calls cover weakened binding; strength is not graded here. Tags and fused reporters may be left off the sequences shown.

Amino acid sequences for entries named in this document (tags omitted).
UniProt Q5XUX1: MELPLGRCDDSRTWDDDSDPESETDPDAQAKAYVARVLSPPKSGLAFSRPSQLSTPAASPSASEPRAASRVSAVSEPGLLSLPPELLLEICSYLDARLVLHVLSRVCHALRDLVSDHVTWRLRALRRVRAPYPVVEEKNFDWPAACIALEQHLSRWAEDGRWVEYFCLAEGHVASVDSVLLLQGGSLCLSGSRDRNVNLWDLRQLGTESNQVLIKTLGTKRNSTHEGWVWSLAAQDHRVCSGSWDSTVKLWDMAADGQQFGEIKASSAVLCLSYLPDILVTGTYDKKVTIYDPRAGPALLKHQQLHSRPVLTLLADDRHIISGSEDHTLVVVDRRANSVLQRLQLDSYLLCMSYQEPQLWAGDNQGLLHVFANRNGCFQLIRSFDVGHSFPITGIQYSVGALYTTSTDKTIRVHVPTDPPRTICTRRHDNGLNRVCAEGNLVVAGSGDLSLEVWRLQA
UniProt Q9UKB1: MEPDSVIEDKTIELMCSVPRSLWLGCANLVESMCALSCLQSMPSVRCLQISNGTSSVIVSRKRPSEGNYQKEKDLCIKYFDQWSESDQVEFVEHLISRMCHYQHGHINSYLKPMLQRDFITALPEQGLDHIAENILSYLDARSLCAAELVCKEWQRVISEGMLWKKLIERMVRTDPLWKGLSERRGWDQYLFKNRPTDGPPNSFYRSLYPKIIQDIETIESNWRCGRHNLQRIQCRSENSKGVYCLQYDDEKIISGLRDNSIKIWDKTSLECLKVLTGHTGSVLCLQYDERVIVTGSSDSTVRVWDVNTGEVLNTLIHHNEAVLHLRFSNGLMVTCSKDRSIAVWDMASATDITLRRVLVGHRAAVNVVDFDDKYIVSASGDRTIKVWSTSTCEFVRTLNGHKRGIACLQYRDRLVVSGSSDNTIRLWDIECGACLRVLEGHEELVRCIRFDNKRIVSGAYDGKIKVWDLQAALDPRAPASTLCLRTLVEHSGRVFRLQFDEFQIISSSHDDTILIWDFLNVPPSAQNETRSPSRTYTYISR
UniProt Q969H0: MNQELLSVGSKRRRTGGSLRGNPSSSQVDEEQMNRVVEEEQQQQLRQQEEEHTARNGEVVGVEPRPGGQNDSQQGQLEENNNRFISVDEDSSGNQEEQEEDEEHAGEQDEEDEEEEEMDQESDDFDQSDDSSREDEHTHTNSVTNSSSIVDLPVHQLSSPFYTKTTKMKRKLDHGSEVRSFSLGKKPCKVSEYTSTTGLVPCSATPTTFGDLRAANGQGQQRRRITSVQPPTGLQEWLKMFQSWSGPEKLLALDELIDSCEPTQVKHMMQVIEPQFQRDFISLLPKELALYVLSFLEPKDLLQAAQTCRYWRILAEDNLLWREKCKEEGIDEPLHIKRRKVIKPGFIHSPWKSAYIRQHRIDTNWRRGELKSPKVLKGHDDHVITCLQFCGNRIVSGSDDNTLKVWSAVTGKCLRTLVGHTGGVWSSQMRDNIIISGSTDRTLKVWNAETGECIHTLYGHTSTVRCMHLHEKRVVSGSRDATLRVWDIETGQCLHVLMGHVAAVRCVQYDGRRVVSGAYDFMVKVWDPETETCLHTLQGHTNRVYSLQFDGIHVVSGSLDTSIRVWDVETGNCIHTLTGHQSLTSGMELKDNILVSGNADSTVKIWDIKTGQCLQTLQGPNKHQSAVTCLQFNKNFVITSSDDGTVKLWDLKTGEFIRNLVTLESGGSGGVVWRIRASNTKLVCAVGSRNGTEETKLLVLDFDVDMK
UniProt Q9Y297: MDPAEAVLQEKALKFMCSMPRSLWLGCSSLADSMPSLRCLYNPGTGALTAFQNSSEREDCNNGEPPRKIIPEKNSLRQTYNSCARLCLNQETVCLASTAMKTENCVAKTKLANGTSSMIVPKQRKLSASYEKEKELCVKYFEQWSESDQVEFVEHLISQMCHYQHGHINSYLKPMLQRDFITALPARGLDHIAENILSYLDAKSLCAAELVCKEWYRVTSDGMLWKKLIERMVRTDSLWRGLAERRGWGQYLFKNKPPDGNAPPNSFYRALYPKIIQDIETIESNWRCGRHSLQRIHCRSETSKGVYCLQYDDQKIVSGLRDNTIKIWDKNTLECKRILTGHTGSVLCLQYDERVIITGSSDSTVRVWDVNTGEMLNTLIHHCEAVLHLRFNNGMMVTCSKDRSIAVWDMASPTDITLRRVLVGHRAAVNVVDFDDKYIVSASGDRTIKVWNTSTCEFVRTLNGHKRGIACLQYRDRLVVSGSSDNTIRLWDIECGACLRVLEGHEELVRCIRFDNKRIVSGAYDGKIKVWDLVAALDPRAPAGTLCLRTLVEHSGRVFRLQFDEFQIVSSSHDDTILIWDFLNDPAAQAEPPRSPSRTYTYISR
UniProt Q969U6: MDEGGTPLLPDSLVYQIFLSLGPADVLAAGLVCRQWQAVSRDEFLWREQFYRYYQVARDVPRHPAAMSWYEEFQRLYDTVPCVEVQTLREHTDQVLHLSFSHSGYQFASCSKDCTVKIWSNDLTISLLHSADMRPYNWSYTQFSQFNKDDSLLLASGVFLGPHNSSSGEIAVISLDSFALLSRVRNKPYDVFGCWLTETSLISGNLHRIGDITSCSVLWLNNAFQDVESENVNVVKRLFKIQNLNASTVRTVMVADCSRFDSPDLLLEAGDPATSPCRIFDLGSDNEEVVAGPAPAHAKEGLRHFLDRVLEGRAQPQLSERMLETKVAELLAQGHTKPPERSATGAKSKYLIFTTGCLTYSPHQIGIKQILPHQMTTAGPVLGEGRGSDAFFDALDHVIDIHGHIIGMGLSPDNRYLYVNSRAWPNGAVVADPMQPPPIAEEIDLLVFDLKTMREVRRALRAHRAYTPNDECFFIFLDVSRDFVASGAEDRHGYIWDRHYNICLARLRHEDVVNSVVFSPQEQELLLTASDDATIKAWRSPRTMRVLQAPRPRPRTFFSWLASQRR

How the values were obtained:
Test in all cases: co-IP; HEK293T cells co-transfected, lysed 48 h later in IP lysis buffer (50 mM Tris-HCl pH 7.5, 0.5% Nonidet P-40, 1 mM EDTA, 150 mM NaCl, 1 mM DTT); immunoprecipitation with anti-Flag M2, anti-c-Myc or anti-FBXW7 antibody and rProtein A agarose at 4 °C overnight; Western blot; reciprocal in Figure 2
[1] = molecular target: T1, Myc-His-IL-17RA full-length (human) (UniProt Q96F46)
T1 sequence: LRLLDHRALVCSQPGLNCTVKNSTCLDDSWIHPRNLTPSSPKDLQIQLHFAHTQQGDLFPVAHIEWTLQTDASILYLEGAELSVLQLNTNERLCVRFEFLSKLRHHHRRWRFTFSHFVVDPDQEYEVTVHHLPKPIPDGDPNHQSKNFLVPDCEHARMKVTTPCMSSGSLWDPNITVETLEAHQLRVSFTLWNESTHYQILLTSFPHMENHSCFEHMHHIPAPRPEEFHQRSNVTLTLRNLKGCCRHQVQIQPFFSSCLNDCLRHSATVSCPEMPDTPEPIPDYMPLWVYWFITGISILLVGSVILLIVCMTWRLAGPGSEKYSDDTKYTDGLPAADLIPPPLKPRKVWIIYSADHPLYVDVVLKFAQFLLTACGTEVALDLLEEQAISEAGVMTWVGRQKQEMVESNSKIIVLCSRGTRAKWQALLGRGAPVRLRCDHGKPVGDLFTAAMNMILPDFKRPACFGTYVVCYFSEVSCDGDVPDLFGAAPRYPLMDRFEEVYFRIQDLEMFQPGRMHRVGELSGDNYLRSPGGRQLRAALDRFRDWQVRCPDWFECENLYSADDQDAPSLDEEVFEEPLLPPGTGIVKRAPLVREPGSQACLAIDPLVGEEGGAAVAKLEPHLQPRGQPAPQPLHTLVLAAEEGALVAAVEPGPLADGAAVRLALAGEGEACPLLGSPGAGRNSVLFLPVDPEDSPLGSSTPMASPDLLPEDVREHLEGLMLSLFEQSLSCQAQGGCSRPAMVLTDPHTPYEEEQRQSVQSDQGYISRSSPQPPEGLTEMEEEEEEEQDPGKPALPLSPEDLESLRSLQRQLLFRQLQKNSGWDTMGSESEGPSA

[2] = molecular target: T2, Flag-IL-17RA ∆729-773 (human) (UniProt Q96F46)
T2 sequence: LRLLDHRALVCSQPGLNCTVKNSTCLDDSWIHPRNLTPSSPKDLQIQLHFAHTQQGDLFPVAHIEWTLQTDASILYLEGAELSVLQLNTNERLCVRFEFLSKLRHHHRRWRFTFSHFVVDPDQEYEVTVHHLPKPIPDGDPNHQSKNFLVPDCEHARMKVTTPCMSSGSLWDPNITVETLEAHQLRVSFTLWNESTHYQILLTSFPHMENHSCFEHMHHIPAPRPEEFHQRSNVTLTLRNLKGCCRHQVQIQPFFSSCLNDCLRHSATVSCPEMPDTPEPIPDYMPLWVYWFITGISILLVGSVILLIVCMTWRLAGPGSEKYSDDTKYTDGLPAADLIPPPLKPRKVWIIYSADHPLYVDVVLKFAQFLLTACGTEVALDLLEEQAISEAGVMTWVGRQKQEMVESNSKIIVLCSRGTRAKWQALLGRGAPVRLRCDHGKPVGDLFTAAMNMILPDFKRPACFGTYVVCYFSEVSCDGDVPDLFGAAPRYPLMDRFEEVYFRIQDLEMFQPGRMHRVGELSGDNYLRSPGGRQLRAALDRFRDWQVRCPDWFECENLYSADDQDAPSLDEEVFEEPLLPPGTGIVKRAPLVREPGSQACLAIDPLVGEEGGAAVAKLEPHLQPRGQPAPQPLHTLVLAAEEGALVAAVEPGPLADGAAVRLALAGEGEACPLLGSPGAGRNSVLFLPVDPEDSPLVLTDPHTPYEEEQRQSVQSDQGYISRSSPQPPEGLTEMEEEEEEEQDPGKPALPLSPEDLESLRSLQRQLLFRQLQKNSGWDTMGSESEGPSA

[3] = molecular target: T3, Flag-IL-17RA full-length (human) (UniProt Q96F46)
T3 sequence: T1 sequence

| binding [1] | binding [2] | binding [3] | Substance |
| --- | --- | --- | --- |
| binds | – | – | Flag-HA-FBXW9 (from UniProt Q5XUX1 1-458) (enzyme) |
| binds | binds | binds | Flag-HA-FBXW11 (from UniProt Q9UKB1 1-542) (enzyme) |
| – | – | binds weakly | HA-tagged full-length FBXW7 (from UniProt Q969H0 1-707) (enzyme) |
| – | binds | binds | Myc-FBXW1A (from UniProt Q9Y297 1-605) (enzyme) |
| – | – | binds | Myc-FBXW5 (from UniProt Q969U6 1-566) (enzyme) |
